Values of other authors in patent publication US20090274714A1, “TUMOUR-ASSOCIATED PEPTIDES BINDING TO HUMAN LEUKOCYTE ANTIGEN (HLA) CLASS I OR II MOLECULES AND RELATED ANTI-CANCER VACCINE” (Immatics Boitechnologies GmhH, priority 2005, published 2009).
Some of these results come from one statement about several compounds together.

Tested on: renal cell carcinoma
Details: chemotherapy in RCC; cited from earlier work

Structure (SMILES): O=c1[nH]cc(F)c(=O)[nH]1 [5-FU, 5-fluorouracil]
- activity rate: 10-12%
